According to PMC3401165, “Regulation of the Cyanobacterial CO2-Concentrating Mechanism Involves Internal Sensing of NADP^+ and α-Ketogutarate Levels by Transcription Factor CcmR” (PLoS ONE, 2012):
For at least one entry, the source does not settle the construct or the ends of the probe. For part of these data: At least one verdict was read from the data and is not stated in words by the source. Tags and fusion partners may be left off the protein sequences shown.

Columns and labels:
CmpR = target: T1, CmpR (UniProt Q55459); assay: SPR; settings: 1.5 uM CmpR (binding enhanced), SPR: 10 mM Pipes pH 7.4, 300 mM NaCl, 0.02% Tween-20, 25 uL/min, temperature not stated, recombinant protein, label: 5' biotin (forward strand), probe letters rebuilt from the primers and the genome
T1 sequence (looked up, limits assumed): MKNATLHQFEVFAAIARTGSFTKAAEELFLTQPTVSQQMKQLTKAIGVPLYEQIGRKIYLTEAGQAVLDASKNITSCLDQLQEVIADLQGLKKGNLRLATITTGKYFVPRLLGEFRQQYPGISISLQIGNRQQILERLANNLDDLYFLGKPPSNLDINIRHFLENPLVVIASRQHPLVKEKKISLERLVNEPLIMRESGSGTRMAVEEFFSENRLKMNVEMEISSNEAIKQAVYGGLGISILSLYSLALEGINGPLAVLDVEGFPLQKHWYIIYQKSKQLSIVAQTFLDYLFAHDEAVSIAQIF

[1] = tested on: T2, CcmR (Synechocystis sp. PCC 6803); assay: SPR; settings: NADP+ or alpha-ketoglutarate (similar enhancement, not shown); SPR: 10 mM Pipes pH 7.4, 300 mM NaCl, 0.02% Tween-20, 25 uL/min, temperature not stated; recombinant protein; protein details: His-tag; label: 5' biotin (forward strand); probe letters rebuilt from the primers and the genome
T2 sequence (looked up, limits assumed): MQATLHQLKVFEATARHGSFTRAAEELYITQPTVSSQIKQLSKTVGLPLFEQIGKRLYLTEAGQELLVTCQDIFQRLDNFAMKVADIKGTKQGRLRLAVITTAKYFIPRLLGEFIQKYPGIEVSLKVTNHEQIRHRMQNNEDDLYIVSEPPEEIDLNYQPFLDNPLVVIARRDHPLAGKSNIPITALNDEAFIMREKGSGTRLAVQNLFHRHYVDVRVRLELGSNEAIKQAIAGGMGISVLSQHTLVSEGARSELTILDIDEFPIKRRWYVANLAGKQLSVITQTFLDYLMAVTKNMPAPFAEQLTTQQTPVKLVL

Does “AATTTACGTCGATTGAATGAACCCATAACTTTGATTGATTTTTTCTATGAAAAAAGGCAGACAGAAAAATTAAATAAGCGCCATGGATATCCCCGGTTTACGGAAGAGCACTGGGGCTCCTAGGCTAGGTAAACCAGGGGACGCTTTAAACTGCCTGCCCGAGGACAATGACTAATCCAAGGGGACTTGAATGATCTGATTATTAAGGAAAGCTAAAAATAGATAAATATCCAATTTTTTATGTAATTTATAGAAGTAGTCTATAAAATTAATCCACTATGAAAAATGCCACCCTCCACCA (double strand) [cmpA promoter]” bind (CmpR; 2-phosphoglycolate 10-500 uM)?
Result: binds

Does “AATTTACGTCGATTGAATGAACCCATAACTTTGATTGATTTTTTCTATGAAAAAAGGCAGACAGAAAAATTAAATAAGCGCCATGGATATCCCCGGTTTACGGAAGAGCACTGGGGCTCCTAGGCTAGGTAAACCAGGGGACGCTTTAAACTGCCTGCCCGAGGACAATGACTAATCCAAGGGGACTTGAATGATCTGATTATTAAGGAAAGCTAAAAATAGATAAATATCCAATTTTTTATGTAATTTATAGAAGTAGTCTATAAAATTAATCCACTATGAAAAATGCCACCCTCCACCA (double strand) [cmpA promoter]” bind (CmpR; RuBP 10-500 uM)?
Result: binds

Does “GCTCCCCGGACTAAGCTTGTCAAAATCATTGGCTTTATTCTATCATTGGTTATCTAACAACAATCCCAGGTCTATGAAAGTGAGTGTAATAGCCATAGGTCTATTTTAGTTATTGACTTCAGCACATCCTAGACCCAAG (double strand) [pccmR (SPR)]” bind [1]?
Result: binds
